# Data as given in publication PMC5996148.
# “And” between values parts separate entries of the source, which are not always exact repeats. Equal values may be shown once. This is one part of the list. For some assays here: The source does not settle which construct or isoform was used.
# Legend:
# Assay in all cases: protein microarray (ProtoArray v5.0), streptavidin-Alexa Fluor 647
# Settings in all cases: 3'-biotin; 20 mM Tris (pH 7.5), 5 mM MgCl2, 100 mM KCl, 0.1% Tween-20, A/T-rich and random oligonucleotide blockers; temperature not stated; high values mean tight binding
# SART3 (human) = test system: SART3 (human)
# SASP (human) = test system: SASP (human)
# SAT2 (human) = test system: SAT2 (human)
# SCAMP1 (human) = test system: SCAMP1 (human)
# SCAMP2 (human) = test system: SCAMP2 (human)
# SCAMP3 (human) = test system: SCAMP3 (human)
# SCAMP4 (human) = test system: SCAMP4 (human)
# SCAND2 (human) = test system: SCAND2 (human)
# SCFD1 (human) = test system: SCFD1 (human)
# SCG3 (human) = test system: SCG3 (human)
# SCGB1A1 (human) = test system: SCGB1A1 (human)
# SCGB1C1 (human) = test system: SCGB1C1 (human)
# SCGB1D1 (human) = test system: SCGB1D1 (human)
# SCGB2A1 (human) = test system: SCGB2A1 (human)
# SCGB3A1 (human) = test system: SCGB3A1 (human)
# SCGB3A2 (human) = test system: SCGB3A2 (human)
# SCIN (human) = test system: SCIN (human)
# SCN5A = SCN5A (UniProt Q14524)
# SCO2 (human) = test system: SCO2 (human)
# SCP2 (human) = test system: SCP2 (human)
sequence,measurement,setting,value
GGGAGGCTGAGGCAGG [G4-1 biotinylated (PQS2)],binding signal,SART3 (human),-0.317 z-score
same,binding signal,SASP (human),-0.308 z-score
same,binding signal,SAT2 (human),-0.307 z-score
same,binding signal,SCAMP1 (human),-0.315 z-score
same,binding signal,SCAMP2 (human),-0.274 z-score
same,binding signal,SCAMP3 (human),-0.324 z-score and -0.278 z-score
same,binding signal,SCAMP4 (human),-0.293 z-score
same,binding signal,SCAND2 (human),-0.306 z-score
same,binding signal,SCFD1 (human),-0.273 z-score
same,binding signal,SCG3 (human),-0.324 z-score
same,binding signal,SCGB1A1 (human),-0.359 z-score
same,binding signal,SCGB1C1 (human),-0.361 z-score
same,binding signal,SCGB1D1 (human),-0.31 z-score
same,binding signal,SCGB2A1 (human),-0.312 z-score
same,binding signal,SCGB3A1 (human),-0.342 z-score
same,binding signal,SCGB3A2 (human),-0.297 z-score
same,binding signal,SCIN (human),-0.312 z-score
same,binding signal,SCN5A,-0.267 z-score
same,binding signal,SCO2 (human),-0.303 z-score
same,binding signal,SCP2 (human),-0.351 z-score

# A portion from the list above, for reference:
sequence,measurement,setting,value
GGGAGGCTGAGGCAGG [G4-1 biotinylated (PQS2)],binding signal,SCFD1 (human),-0.273 z-score
same,binding signal,SCG3 (human),-0.324 z-score
